Measured values reported in the supplement of paper PMC12282887.
These are raw signals, not scaled to a control.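 For antimicrobials the highest concentration approximated the MIC. Most other compounds topped out at 500 µM, and known inducer-like compounds reached up to 1 mM. Inocula for deletion strains were tenfold smaller, and any well growing below 10% of the overall median was considered non-growing.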

Test system: Escherichia coli BW25113
Experiment: growth (OD600 area under curve, 8 h) (OD600 x h); higher = more growth
Experimental: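 E. coli BW25113 reporter strains (wild type, ΔmarA, ΔsoxS, Δrob, each carrying one of 8 lux reporter plasmids) were grown in 40 µl LB in 384-well plates at 37°C, 800 rpm, with each compound at 4 two-fold concentrations, in biological duplicates. Growth is the baseline-corrected OD600 area under the curve over 8 h (0-8 h WT, 1-9 h deletion strains).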

O=C(O)c1cn(C2CC2)c2cc(N3CCNCC3)c(F)cc2c1=O [Ciprofloxacin]
growth
Details | reporter plasmid: EVC | reporter plasmid: acrABp | reporter plasmid: marRABp | reporter plasmid: micFp | reporter plasmid: ompFp | reporter plasmid: robp | reporter plasmid: soxSp | reporter plasmid: tolCp
0.0012 µg/ml, genetic background: wild type | 3.11 | 3.17 | 3.41 | 3.13 | 3.318 | 3.58 | 3.03 | 3.197
0.0012 µg/ml, genetic background: ΔmarA | 3.27 | 4.39 | 3.98 | 3.18 | 3.56 | 3.97 | 2.77 | 2.97
0.0012 µg/ml, genetic background: Δrob | 2.53 | 3 | 3.63 | 3.05 | 2.61 | 2.71 | 2.69 | 3.08
0.0012 µg/ml, genetic background: ΔsoxS | 3 | 3.09 | 3.13 | 2.58 | 2.92 | 3.07 | 3.05 | 2.93
0.0025 µg/ml, genetic background: wild type | 2.87 | 3.09 | 3.23 | 3.09 | 3.29 | 3.36 | 2.99 | 3.1312
0.0025 µg/ml, genetic background: ΔmarA | 3.1 | 4.39 | 4.08 | 3.09 | 3.45 | 3.85 | 2.72 | 2.91
0.0025 µg/ml, genetic background: Δrob | 2.41 | 3.02 | 3.47 | 2.71 | 2.6 | 2.74 | 2.72 | 3.03
0.0025 µg/ml, genetic background: ΔsoxS | 2.88 | 2.91 | 3.15 | 2.35 | 2.92 | 2.96 | 3.06 | 2.97
0.005 µg/ml, genetic background: wild type | 2.66 | 3.26 | 3.5 | 2.97 | 3.365 | 3.5 | 2.85 | 2.89
0.005 µg/ml, genetic background: ΔmarA | 3.16 | 4.12 | 3.87 | 3.09 | 3.51 | 3.92 | 2.85 | 2.76
0.005 µg/ml, genetic background: Δrob | 2.79 | 2.99 | 3.344 | 2.38 | 2.09 | 2.72 | 2.57 | 2.83
0.005 µg/ml, genetic background: ΔsoxS | 3.09 | 2.99 | 3.09 | 2.63 | 3.05 | 3.43 | 2.89 | 2.8
0.0099 µg/ml, genetic background: wild type | 1.73 | 0.983 | 1.17 | 1.49 | 0.524 | 0.754 | 2.35 | 1.91
0.0099 µg/ml, genetic background: ΔmarA | 1.41 | 0.151 | 0.189 | 0.974 | -0.0835 | 0.819 | 2.08 | 1.04
0.0099 µg/ml, genetic background: Δrob | 1.07 | 0.0801 | -0.0159 | 0.364 | -0.0872 | 0.0196 | 1.85 | 1.05
0.0099 µg/ml, genetic background: ΔsoxS | 1.59 | 0.0322 | 0.188 | 0.457 | -0.0161 | -0.0122 | 0.529 | 1.46

CC[C@H]1OC(=O)[C@H](C)[C@@H](O[C@H]2C[C@@](C)(OC)[C@@H](O)[C@H](C)O2)[C@H](C)[C@@H](O[C@@H]2O[C@H](C)C[C@H](N(C)C)[C@H]2O)[C@](C)(OC)C[C@@H](C)C(=O)[C@H](C)[C@@H](O)[C@]1(C)O [Clarithromycin]
growth
Details | reporter plasmid: EVC | reporter plasmid: acrABp | reporter plasmid: marRABp | reporter plasmid: micFp | reporter plasmid: ompFp | reporter plasmid: robp | reporter plasmid: soxSp | reporter plasmid: tolCp
3.7 µg/ml, genetic background: wild type | 1.73 | 1.86 | 2.36 | 2.42 | 2.08 | 2.34 | 2.82 | 2.4
3.7 µg/ml, genetic background: ΔmarA | 2.02 | 2.7 | 2.372 | 1.7 | 2.03 | 2.67 | 2.38 | 1.78
3.7 µg/ml, genetic background: Δrob | 1.55 | 1.72 | 2.17 | 1.89 | 1.46 | 1.47 | 2.35 | 1.91
3.7 µg/ml, genetic background: ΔsoxS | 1.74 | 1.69 | 1.97 | 1.35 | 1.77 | 1.61 | 1.74 | 1.65
7.5 µg/ml, genetic background: wild type | 1.6 | 1.26 | 1.71 | 1.83 | 1.51 | 1.7 | 2.27 | 1.69
7.5 µg/ml, genetic background: ΔmarA | 1.35 | 1.85 | 1.66 | 1.15 | 1.3 | 1.81 | 1.75 | 1.05
7.5 µg/ml, genetic background: Δrob | 1.08 | 1.15 | 1.53 | 1.33 | 0.939 | 0.923 | 1.76 | 1.29
7.5 µg/ml, genetic background: ΔsoxS | 1.09 | 0.891 | 1.13 | 0.663 | 1.05 | 0.808 | 0.944 | 1.02
15 µg/ml, genetic background: wild type | 0.809 | 0.876 | 1.18 | 1.17 | 0.871 | 1.25 | 1.72 | 1.27
15 µg/ml, genetic background: ΔmarA | 0.952 | 0.408 | 0.37 | 0.55 | 0.249 | 0.592 | 1.14 | 0.528
15 µg/ml, genetic background: Δrob | 0.69 | 0.421 | 0.669 | 0.647 | 0.184 | 0.248 | 1.16 | 0.756
15 µg/ml, genetic background: ΔsoxS | 0.629 | 0.356 | 0.378 | 0.238 | 0.377 | 0.194 | 0.334 | 0.54
29.9 µg/ml, genetic background: wild type | 0.382 | 0.312 | 0.542 | 0.708 | 0.372 | 0.554 | 1.19 | 0.94
29.9 µg/ml, genetic background: ΔmarA | 0.343 | 0.0347 | 0.0627 | 0.0916 | -0.0275 | 0.195 | 0.562 | 0.0469
29.9 µg/ml, genetic background: Δrob | 0.0306 | 0.0796 | 0.0989 | 0.198 | -0.0275 | 0.0533 | 0.459 | 0.332
29.9 µg/ml, genetic background: ΔsoxS | 0.129 | 0.056 | 0.0588 | 0.00347 | 0.0419 | -0.00277 | 0.0975 | 0.137

CCC[C@@H]1C[C@@H](C(=O)N[C@@H]([C@H]2O[C@H](SC)[C@H](O)[C@@H](O)[C@H]2O)[C@H](C)Cl)N(C)C1 [Clindamycin]
growth
Details | reporter plasmid: EVC | reporter plasmid: acrABp | reporter plasmid: marRABp | reporter plasmid: micFp | reporter plasmid: ompFp | reporter plasmid: robp | reporter plasmid: soxSp | reporter plasmid: tolCp
0.26 µg/ml, genetic background: wild type | 2.711 | 2.65 | 3.18 | 3.26 | 2.98 | 3.28 | 3.19 | 3.164
0.26 µg/ml, genetic background: ΔmarA | 3.38 | 4.32 | 3.81 | 3.21 | 3.57 | 3.79 | 3.01 | 2.93
0.26 µg/ml, genetic background: Δrob | 3.15 | 2.88 | 3.35 | 3.15 | 2.86 | 2.87 | 3.08 | 3.18
0.26 µg/ml, genetic background: ΔsoxS | 3.23 | 3.05 | 3.27 | 3.01 | 3.41 | 3.29 | 3.18 | 3.25
0.52 µg/ml, genetic background: wild type | 2.6 | 2.71 | 3.39 | 3.15 | 3.03 | 3.301 | 2.97 | 2.89
0.52 µg/ml, genetic background: ΔmarA | 3.12 | 4.25 | 3.78 | 3.12 | 3.57 | 3.85 | 2.78 | 2.91
0.52 µg/ml, genetic background: Δrob | 2.76 | 2.9 | 3.39 | 3.01 | 2.27 | 2.67 | 2.77 | 2.84
0.52 µg/ml, genetic background: ΔsoxS | 2.83 | 2.87 | 3.1 | 2.62 | 3.19 | 3.17 | 3.07 | 2.91
1 µg/ml, genetic background: wild type | 2.82 | 2.79 | 3.06 | 3.19 | 2.99 | 3.2 | 2.97 | 3.1
1 µg/ml, genetic background: ΔmarA | 3.34 | 4.12 | 3.95 | 3.13 | 3.47 | 3.83 | 2.96 | 2.89
1 µg/ml, genetic background: Δrob | 3.12 | 2.8 | 3.23 | 3 | 2.74 | 2.78 | 2.94 | 2.99
1 µg/ml, genetic background: ΔsoxS | 3.18 | 2.9 | 2.96 | 2.75 | 3.4 | 3.39 | 3.15 | 3.229
2.1 µg/ml, genetic background: wild type | 2.47 | 2.54 | 3.19 | 2.878 | 2.68 | 2.99 | 2.82 | 2.88
2.1 µg/ml, genetic background: ΔmarA | 3.11 | 3.76 | 3.29 | 2.87 | 3.15 | 3.45 | 2.52 | 2.55
2.1 µg/ml, genetic background: Δrob | 2.78 | 2.6 | 3.18 | 2.57 | 2.4 | 2.33 | 2.53 | 2.74
2.1 µg/ml, genetic background: ΔsoxS | 2.78 | 2.52 | 2.6 | 2.22 | 2.48 | 2.68 | 2.57 | 2.68

COc1cc(/C=C/C(=O)CC(=O)/C=C/c2ccc(O)c(OC)c2)ccc1O [Curcumin]
growth
Details | reporter plasmid: EVC | reporter plasmid: acrABp | reporter plasmid: marRABp | reporter plasmid: micFp | reporter plasmid: ompFp | reporter plasmid: robp | reporter plasmid: soxSp | reporter plasmid: tolCp
23 µg/ml, genetic background: wild type | 2.8 | 3.08 | 2.84 | 3.26 | 3.2 | 3.19 | 3.11 | 3.27
23 µg/ml, genetic background: ΔmarA | 3.42 | 3.439 | 3.47 | 3.36 | 3.67 | 4.13 | 2.91 | 3.16
23 µg/ml, genetic background: Δrob | 2.98 | 2.57 | 3.09 | 3.21 | 2.45 | 2.58 | 3.03 | 3.06
23 µg/ml, genetic background: ΔsoxS | 3.26 | 2.69 | 2.81 | 2.92 | 3.34 | 2.86 | 2.77 | 2.97
46 µg/ml, genetic background: wild type | 2.67 | 2.4 | 3.0567 | 3.18 | 2.74 | 3.03 | 3.19 | 3.19
46 µg/ml, genetic background: ΔmarA | 3.31 | 3.34 | 2.89 | 3 | 3.08 | 3.65 | 2.93 | 2.96
46 µg/ml, genetic background: Δrob | 2.97 | 2.51 | 3.22 | 3.13 | 2.3 | 2.44 | 2.98 | 3.13
46 µg/ml, genetic background: ΔsoxS | 3.213 | 2.84 | 2.86 | 2.94 | 2.97 | 2.96 | 2.88 | 2.824
92.1 µg/ml, genetic background: wild type | 2.68 | 2.3 | 2.32 | 3.042 | 2.81 | 2.726 | 3 | 3.07
92.1 µg/ml, genetic background: ΔmarA | 3.17 | 3.41 | 2.22 | 3.2 | 3.15 | 3.71 | 2.96 | 2.98
92.1 µg/ml, genetic background: Δrob | 3.02 | 1.88 | 2.77 | 3.04 | 1.85 | 1.95 | 2.95 | 3.04
92.1 µg/ml, genetic background: ΔsoxS | 3.2117 | 2.76 | 2.78 | 2.98 | 2.93 | 3.07 | 2.65 | 3.01
184.2 µg/ml, genetic background: wild type | 2.604 | 2.07 | 2.41 | 3.09 | 2.36 | 2.97 | 2.999 | 2.9
184.2 µg/ml, genetic background: ΔmarA | 3.29 | 2.68 | 3.18 | 2.94 | 3.1 | 3.71 | 2.8 | 2.94
184.2 µg/ml, genetic background: Δrob | 2.97 | 1.7 | 2.35 | 3.03 | 2.24 | 1.76 | 2.77 | 2.95
184.2 µg/ml, genetic background: ΔsoxS | 3.239 | 2.66 | 2.55 | 2.86 | 2.93 | 2.42 | 2.59 | 2.92
